This is an account of results in US5087704A, “Cyanine compounds” (Asahi Chemical Co., Ltd., priority 1988, dated 1992).

The nature of this series: Test for reflectivity (dye layer spin-coated on acrylic resin plate). Particulars: 30 g/l in diacetone alcohol, spin-coated layer 600 to 700 Å on acrylic resin plate, light of 770 to 800 nm. The protocol:
Each of cyanine dyes as shown below in Table 1 was dissolved in diacetone alcohol to a concentration of 30 g/l. The solution was applied to an acrylic resin plate by a spin coater rotated at 150 rpm to form a layer having a thickness of
600 to 700 Å, followed by drying. The maximum reflectivity of the coated acrylic resin plate was measured on irradiation of light at a wave length of 770 to 800 nm onto the substrate.
Consider `CCCCN1C(=CC=CC=CC2=[N+](CCCC)c3cc4c(cc3C2(C)C)CC(C)O4)C(C)(C)c2cc3c(cc21)OC(C)C3` (stereo not drawn) [Preparation Example 5], for which the “Maximum reflectivity (%)” value stood at 40%.
The result for `CC1(C)C(=CC=CC=CC2=[N+](CCO)c3cc4c(cc3C2(C)C)OCO4)N(CCO)c2cc3c(cc21)OCO3` [Preparation Example 10] reads 45%.
The result for `CCN1C(=CC=CC=CC2=[N+](CC)c3cc4c(cc3C2(C)C)OCO4)C(C)(C)c2cc3c(cc21)OCO3` [Preparation Example 2] reads 45%; that for `CCCCN1C(=CC=CC=CC2=[N+](CCCC)c3cc4c(cc3C2(C)C)OCO4)C(C)(C)c2cc3c(cc21)OCO3` [Preparation Example 1], 45%.
The result for `CCCCN1C(=CC=CC=CC2=[N+](CCCC)c3cc4c(cc3C2(C)C)OC(C)C4)C(C)(C)c2cc3c(cc21)CC(C)O3` (stereo not drawn) [Preparation Example 4] reads 39%; that for `CCOCCN1C(=CC=CC=CC2=[N+](CCOCC)c3cc4c(cc3C2(C)C)CCC4)C(C)(C)c2cc3c(cc21)CCC3` [Preparation Example 7], 42%.
